Values of other authors, collected in patent publication US7767196B2, “Optimized relaxivity and specificity hepatobiliary MRI contrast agent” (priority 2005, dated 2010).
At least one compound was matched to its structure with a doubt left.

Details: cited from earlier work

O=C([O-])CN1CCN(CC(=O)[O-])CCN([C@H](CO)[C@H](O)CO)CCN(CC(=O)[O-])CC1.[Gd+3] (racemic) [Gd-DO3A-butrol, gadobutrol]
Hydration Number (q): 1

CC(O)CN1CCN(CC(=O)[O-])CCN(CC(=O)[O-])CCN(CC(=O)[O-])CC1.[Gd+3] (centres unmarked) [Gd-HP-DO3A, gadoteridol]
Hydration Number (q): 1
